The results in this text go back to PubChem BioAssay AID248 (DTP/NCI, 2004).

The subject of this assay is L1210 leukemia ip in BDF1 mice, survival T/C. Briefly: NCI In Vivo Anticancer Drug Screen. Data for tumor model L1210 Leukemia (intraperitoneal) in B6D2F1 (BDF1) mice. Particulars: higher T/C = longer survival.
Where [1] appears, read: T/C endpoint: mean survival time, dose: 400.0 mg/kg/injection, schedule: Q01DX009 (ip), vehicle: Klucel (hydroxypropylcellulose) (HPC).
Where [2] appears, read: T/C endpoint: mean survival time, dose: 50.0 mg/kg/injection, schedule: Q04DX002 (ip), vehicle: other.
Where [3] appears, read: T/C endpoint: mean survival time, dose: 100.0 mg/kg/injection, schedule: Q04DX002 (ip), vehicle: other.
[4] abbreviates: T/C endpoint: mean survival time, dose: 200.0 mg/kg/injection, schedule: Q04DX002 (ip), vehicle: other.
Setting [5] is: T/C endpoint: mean survival time, dose: 400.0 mg/kg/injection, schedule: Q01DX001 (ip), vehicle: carboxymethylcellulose (CMC).
Setting [6] is: T/C endpoint: mean survival time, dose: 100.0 mg/kg/injection, schedule: Q01DX001 (ip), vehicle: carboxymethylcellulose (CMC).
Where [7] appears, read: T/C endpoint: mean survival time, dose: 200.0 mg/kg/injection, schedule: Q01DX001 (ip), vehicle: carboxymethylcellulose (CMC).

The list is a part of this screen's results and no random one: it is rich in T/C values a quarter to a half above the control, in often repeated tests (any T/C) and in doses without a T/C. Further doses and runs are listed elsewhere. T/C gives the treated animals as a percentage of the vehicle group. Some doses have a count of surviving animals in place of a T/C: the source holds a T/C of zero for them, seemingly a mark for toxic or unscored doses. Some doses without a T/C left all or most animals alive at the check, yet need not have been tolerated: survival well below the control is almost never listed, so the zero probably covers shortened survival too. Survivors were counted at the toxicity check, usually on the fifth day, unless a day is given; later deaths do not show. Schedules are NCI's codes, taken here to give the interval after Q, in days (D) or hours (H), and the number of doses after X. Some entries were tested several times; the results are listed from low to high. Some schedule codes hold Z or #, which are not explained here. Where survival is the endpoint, the PubChem record calls one and a half times the control and up active, and a quarter to a half above the control has no call in these data; cut-offs in other NCI protocols can differ. Brackets with × give the number of equal values in this list.

As to `O=C(O)c1cc(=O)[nH]c(=O)[nH]1`, the survivor count runs as follows: (T/C endpoint: mean survival time, dose: 200.0 mg/kg/injection, schedule: Q04DX002 (ip), vehicle: Klucel (hydroxypropylcellulose) (HPC)) 1 of 3; (T/C endpoint: mean survival time, dose: 400.0 mg/kg/injection, schedule: Q04DX002 (ip), vehicle: Klucel (hydroxypropylcellulose) (HPC)) 1 of 3.

Regarding `CC(=O)Nc1ccc(OCc2ccccc2)c(C)c1C`, the survivor count (T/C endpoint: mean survival time, dose: 100.0 mg/kg/injection, schedule: Q01DX009 (ip), vehicle: Klucel (hydroxypropylcellulose) (HPC)) is listed as 0 of 6; the survivor count (T/C endpoint: mean survival time, dose: 200.0 mg/kg/injection, schedule: Q01DX009 (ip), vehicle: Klucel (hydroxypropylcellulose) (HPC)) is reported as 0 of 6; the survivor count under setting [1] is given as 0 of 6.

On to `CCSc1ncnc2nc(C)[nH]c12`, for which the survivor count (T/C endpoint: mean survival time, dose: 400.0 mg/kg/injection, schedule: Q01DX001 (ip), vehicle: saline) was 3 of 6.

Regarding `N#C[C@H](OC1OC(COC2OC(CO)C(O)C(O)C2O)C(O)C(O)C1O)c1ccccc1` (stereo partly specified), the survivor count runs as follows: (T/C endpoint: median survival time, dose: 100.0 mg/kg/injection, schedule: Q01DX Z (ip), vehicle: water) 0 of 8; (T/C endpoint: median survival time, dose: 200.0 mg/kg/injection, schedule: Q01DX Z (ip), vehicle: water) 0 of 8.

For the compound `O=[N+]([O-])c1ccc(Cl)nc1`, the survivor count (T/C endpoint: mean survival time, dose: 400.0 mg/kg/injection, schedule: Q01DX009 (ip), vehicle: saline sonified) was 3 of 6.

In the case of `Clc1ccc(SSc2ccc(Cl)cc2)cc1`, the survivor count is, setting by setting: (T/C endpoint: mean survival time, dose: 100.0 mg/kg/injection, schedule: Q01DX009 (ip), vehicle: gum acacia) 5 of 6; (T/C endpoint: mean survival time, dose: 200.0 mg/kg/injection, schedule: Q01DX009 (ip), vehicle: gum acacia) 5 of 6; (T/C endpoint: mean survival time, dose: 400.0 mg/kg/injection, schedule: Q01DX009 (ip), vehicle: gum acacia) 0 of 6.

Take `O=C(OCC(O)C1OC(c2ccccc2)OC1C(O)COC(=O)c1ccccc1)c1ccccc1` (stereo unspecified): the survivor count (T/C endpoint: mean survival time, dose: 200.0 mg/kg/injection, schedule: Q04DX003 (ip), vehicle: saline with Tween-80) is given as 1 of 1.

As to `C#CC(N)=O`, the survivor count is, setting by setting: (T/C endpoint: mean survival time, dose: 25.0 mg/kg/injection, schedule: Q01DX009 (ip), vehicle: saline) 3 of 6; (T/C endpoint: mean survival time, dose: 50.0 mg/kg/injection, schedule: Q01DX009 (ip), vehicle: saline) 0 of 6; (T/C endpoint: mean survival time, dose: 100.0 mg/kg/injection, schedule: Q01DX009 (ip), vehicle: saline) 0 of 6; (T/C endpoint: mean survival time, dose: 100.0 mg/kg/injection, schedule: Q04DX003 (ip), vehicle: saline) 1 of 6; (T/C endpoint: mean survival time, dose: 150.0 mg/kg/injection, schedule: Q01DX001 (ip), vehicle: saline) 0 of 6; (T/C endpoint: mean survival time, dose: 300.0 mg/kg/injection, schedule: Q01DX001 (ip), vehicle: saline) 0 of 6.

Consider `Oc1ccccc1C=NCCCN1CCOCC1.Oc1ccccc1C=NCCCN1CCOCC1.[Co]`, for which the survivor count (T/C endpoint: mean survival time, dose: 100.0 mg/kg/injection, schedule: Q01DX001 (ip), vehicle: saline) is on record as 0 of 6.

`C=C(COc1ccc(Cl)cc1)COc1ccc(Cl)cc1`: the T/C (T/C endpoint: mean survival time, dose: 25.0 mg/kg/injection, schedule: Q04DX002 (ip), vehicle: other) is recorded as 95, 96, 108, 110 % of control; the T/C under setting [2] is 93, 101, 103, 107, 142 % of control; the T/C under setting [3] is given as 92, 100, 101, 104, 106, 109, 134 % of control; the T/C under setting [4] was 88, 90, 92, 93 (2×), 101 % of control. The survivor count reads like this: under setting [2], 3 of 3; under setting [3], 3 of 3 and 6 of 6; under setting [4], 3 of 3; (T/C endpoint: mean survival time, dose: 400.0 mg/kg/injection, schedule: Q01DX001 (ip), vehicle: other) 3 of 3.

`CSc1ncnc2c1ncn2N(CCCCN=C=S)C(C)=O`: the survivor count is reported as 0 of 6 (T/C endpoint: mean survival time, dose: 100.0 mg/kg/injection, schedule: Q01DX001 (ip), vehicle: saline with Tween-80); 0 of 6 (T/C endpoint: mean survival time, dose: 200.0 mg/kg/injection, schedule: Q01DX001 (ip), vehicle: saline with Tween-80); 0 of 6 (T/C endpoint: mean survival time, dose: 400.0 mg/kg/injection, schedule: Q01DX001 (ip), vehicle: saline with Tween-80).

As for `Cc1c(Cl)cccc1N1C(=O)CC(Sc2ccccc2N)C1=O` (stereo unspecified), the survivor count is on record as 6 of 6 (T/C endpoint: mean survival time, dose: 200.0 mg/kg/injection, schedule: Q04DX003 (ip), vehicle: Klucel (hydroxypropylcellulose) (HPC)) and 6 of 6 under setting [1].

In the case of `Nc1ncnn1C(=S)NCc1ccccc1`, the survivor count is on record as 6 of 6 (T/C endpoint: mean survival time, dose: 200.0 mg/kg/injection, schedule: Q01DX009 (ip), vehicle: saline) and 5 of 6 (T/C endpoint: mean survival time, dose: 400.0 mg/kg/injection, schedule: Q01DX009 (ip), vehicle: saline).

Regarding `Cc1cc(N(CCCl)CCCl)ccc1C=Nc1ccc(C(=O)O)c(O)c1`, under setting [5], the survivor count is listed as 1 of 4.

As for `CCOc1ccc(NC2=C(OC)C(=O)C(Nc3ccc(OCC)cc3)=C(OC)C2=O)cc1`, the survivor count is listed as 4 of 4 under setting [6] and 4 of 4 under setting [7].

Consider `O=C(CBr)NCCCCc1ccc(C(=O)O)cc1`, for which the survivor count is given as 1 of 6 (T/C endpoint: mean survival time, dose: 80.0 mg/kg/injection, schedule: Q01DX001 (ip), vehicle: carboxymethylcellulose (CMC)); 3 of 6 under setting [6]; 0 of 6 under setting [7]; 0 of 6 under setting [5].

On to `COC(=O)C1CC23C=CCN4CC(C2C)C2(c5ccccc5NC12)C43` (stereo unspecified), for which the survivor count (T/C endpoint: mean survival time, dose: 200.0 mg/kg/injection, schedule: Q01DX001 (ip), vehicle: saline) was 0 of 6.

With `O=C(NC1CC1(c1ccccc1)c1ccccc1)NC1CC1(c1ccccc1)c1ccccc1` (stereo unspecified), the survivor count (T/C endpoint: mean survival time, dose: 75.0 mg/kg/injection, schedule: Q01DX001 (ip), vehicle: other) was 6 of 6 and the survivor count (T/C endpoint: mean survival time, dose: 150.0 mg/kg/injection, schedule: Q01DX001 (ip), vehicle: other) was 6 of 6.

Turning to `CCCCN(CCCC)CC(=O)Nc1ccc(C(=O)OCC(C)C)cc1`, the survivor count (T/C endpoint: mean survival time, dose: 100.0 mg/kg/injection, schedule: Q01DX Z (ip), vehicle: saline) is listed as 0 of 6.
